No constants are given. Whether binding was seen depends on the method and setting. Some results given as binding are weak or reduced against the parent protein; the word gives no strength.
Target: T1, preformed IL-17RC-IL-17F complex (IL-17F captured by immobilised IL-17RC) (human) (UniProt Q8NAC3+Q96PD4)
T1 sequence (chain, biotin on the C-terminal BirA ligase tag) 1: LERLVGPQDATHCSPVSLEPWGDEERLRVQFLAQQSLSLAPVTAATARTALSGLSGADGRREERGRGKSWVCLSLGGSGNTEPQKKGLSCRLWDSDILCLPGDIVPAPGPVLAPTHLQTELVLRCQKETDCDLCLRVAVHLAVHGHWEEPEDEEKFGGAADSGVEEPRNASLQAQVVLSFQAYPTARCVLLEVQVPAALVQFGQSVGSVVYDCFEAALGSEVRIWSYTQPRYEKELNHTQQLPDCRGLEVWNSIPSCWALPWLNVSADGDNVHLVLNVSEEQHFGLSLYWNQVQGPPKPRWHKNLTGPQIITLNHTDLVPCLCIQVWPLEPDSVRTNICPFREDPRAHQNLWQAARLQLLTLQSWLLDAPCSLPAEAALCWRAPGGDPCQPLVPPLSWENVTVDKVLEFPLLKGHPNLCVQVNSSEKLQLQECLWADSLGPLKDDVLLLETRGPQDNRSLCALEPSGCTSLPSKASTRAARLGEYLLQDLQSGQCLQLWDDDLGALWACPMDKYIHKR
T1 sequence (chain, biotin on the C-terminal BirA ligase tag) 2: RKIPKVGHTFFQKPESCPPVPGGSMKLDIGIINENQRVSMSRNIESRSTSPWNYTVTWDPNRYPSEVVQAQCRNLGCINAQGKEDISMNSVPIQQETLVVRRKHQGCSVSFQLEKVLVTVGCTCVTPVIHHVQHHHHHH
Assay: SPR, second receptor injected over IL-17F captured on immobilised IL-17RC

binding: binds
B1: IL-17RC extracellular domain (receptor, UniProt Q8NAC3 21-538, looked up)
chain: T1 sequence (chain, biotin on the C-terminal BirA ligase tag) 1

— US20140105855A1
